# Measured values: US8071810B2, “C5a receptor antagonists” (Jerini AG, priority 2005, dated 2011)
# Values joined by “and” are separate entries in the source; they are usually repeats but may differ in a detail not shown here. Equal entries are not always repeated. At least one compound was matched to its structure with a doubt left.
# What was measured:
# C5a receptor [1] = target: T1, C5a receptor (Homo sapiens, UniProt P21730); details: cited from earlier work
# T1 sequence (P21730 1-350): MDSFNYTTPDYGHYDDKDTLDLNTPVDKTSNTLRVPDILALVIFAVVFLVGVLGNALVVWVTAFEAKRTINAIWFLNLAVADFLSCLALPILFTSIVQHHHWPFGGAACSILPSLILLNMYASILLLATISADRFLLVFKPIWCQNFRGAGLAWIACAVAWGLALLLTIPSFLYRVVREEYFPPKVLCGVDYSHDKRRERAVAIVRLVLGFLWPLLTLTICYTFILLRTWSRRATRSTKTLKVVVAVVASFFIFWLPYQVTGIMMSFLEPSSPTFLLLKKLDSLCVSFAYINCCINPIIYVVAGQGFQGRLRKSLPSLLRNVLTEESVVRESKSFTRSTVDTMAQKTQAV
# C5a receptor [2] = target: T1, C5a receptor; details: cited from earlier work; remark: listed apart in the source
# [3] = Solubility in PBS-buffered aqueous solution; assay type: physicochemical
# [4] = target: T2, human C5a receptor (CD88) (Homo sapiens, UniProt P21730); experiment: C5a induced enzyme (glucosaminidase) release assay in RBL cells expressing the human C5a receptor (Example 28); assay type: cell-based; details: RBL cells with human C5aR
# T2 construct: expressed in transfected cells; host or cells: rat basophilic leukemia (RBL) cells, stably transfected
# T2 sequence (P21730 1-350): T1 sequence (P21730 1-350)
# Experimental: Basophile leukemia cells from rats (RBL), which express the human C5a receptor (CD88), are cultivated in DMEM with 10% fetal calf serum, 100 U/ml penicillin, 100 μg/ml streptomycin and 2 mM glutamin (all constituents are from Biochrome, Berlin) at 37° C. and with 10% CO2 until a confluent layer is obtained. All following details refer to a tissue culture flask with 75 cm^2 surface. The used up medium is removed. The cells are washed with 10 ml PBS (Dulbecco's PBS, Biochrome) and then covered with 3 ml cell dissociation solution (CDS, Sigma). The cells are incubated for 1 minute at room temperature. Then the CDS is removed and the cells are incubated for further 10-15 minutes at 37° C. to detach the cells completely from the flask. 20 μl solution of the compound to be testet are used in the assay. […] The dilution series are prepared in ⅓ or ½ steps. […] The cells are counted and centrifuged (200 g, 10 min). The cell pellet is taken up with pre-heated HAG-CM, and the cell density is adjusted to 2×10^6 Zellen/ml. The cells are incubated for 5 minutes at 37° C. 2.7 μl of a cytochalasin B solution (1000 μg/ml in DMSO, Sigma) are added per ml cell suspension. The Zellen are incubated for another 3 min at 37° C. […] The IC50 value is determined by solving the four parameter equation y=((A−D)/(1+(x/C)^B))+D.
# C5a receptor [5] = target: T1, C5a receptor; details: cited from earlier work; remark: listed apart in the source
smiles,measurement,setting,value
COc1ccc2c(c1)C(C(=O)N(Cc1ccc(N(C)C)cc1)c1ccc(C(C)C)cc1)CCC2 (centres unmarked) [W-54011],IC50 rhC5a-induced calcium mobilization,C5a receptor [1],3.1 nM
same,IC50 rhC5a-induced ROS release,C5a receptor [2],1.6 nM
same,solubility in PBS-buffered aqueous solution,[3],0.4 µM
same,IC50 for the inhibition of C5a induced enzyme release,[4],89 nM and 90 nM
same,IC50 rhC5a-induced chemotaxis,C5a receptor [5],2.7 nM
